The other results are listed elsewhere or left out.
Key:
Experiment in all cases: log2 fold change, soluble protein after heating vs DMSO (PISA); higher = thermal stabilisation; K562 lysate, 10 uM; active = over 0.2 and 3.5 SD of the protein, either way, in both replicates (recomputed)
vemurafenib = compound: CCCS(=O)(=O)Nc1ccc(F)c(C(=O)c2c[nH]c3ncc(-c4ccc(Cl)cc4)cc23)c1F [vemurafenib]
Procedure, shortened: (§1)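 Pellets of K562 cells were dounce-homogenised in PBS pH 7.4 with 1 mM MgCl2, and the crude extract was held at 1 mg/mL protein for a 30 min treatment with 10 μM compound. Aliquots were heated for 3 min over 48°C-58°C and pooled before NP-40 was added to 0.5% at 4°C. The supernatant from 21,000xg for 90 min was quantified by TMTpro 16plex LC-MS/MS with channel sums equalised. Values are reported from duplicates as log-two fold change in thermal stability relative to solvent controls.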

Chains of the proteins cited; added tags and fusions are not shown. Lines headed by an entry give the natural chain unless they say otherwise; changes in a name come on top.
UniProt Q9HAC7: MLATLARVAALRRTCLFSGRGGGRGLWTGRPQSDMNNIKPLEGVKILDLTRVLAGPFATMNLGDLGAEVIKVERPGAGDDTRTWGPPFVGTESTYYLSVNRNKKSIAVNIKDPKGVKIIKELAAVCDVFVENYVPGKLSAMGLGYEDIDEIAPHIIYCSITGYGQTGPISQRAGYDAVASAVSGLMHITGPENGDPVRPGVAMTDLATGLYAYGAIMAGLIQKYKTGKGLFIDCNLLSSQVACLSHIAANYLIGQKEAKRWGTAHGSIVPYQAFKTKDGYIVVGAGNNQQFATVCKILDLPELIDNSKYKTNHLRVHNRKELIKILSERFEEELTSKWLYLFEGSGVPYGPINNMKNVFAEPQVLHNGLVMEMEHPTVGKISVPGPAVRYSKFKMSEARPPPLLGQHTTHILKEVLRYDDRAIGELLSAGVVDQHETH
UniProt Q86TL2: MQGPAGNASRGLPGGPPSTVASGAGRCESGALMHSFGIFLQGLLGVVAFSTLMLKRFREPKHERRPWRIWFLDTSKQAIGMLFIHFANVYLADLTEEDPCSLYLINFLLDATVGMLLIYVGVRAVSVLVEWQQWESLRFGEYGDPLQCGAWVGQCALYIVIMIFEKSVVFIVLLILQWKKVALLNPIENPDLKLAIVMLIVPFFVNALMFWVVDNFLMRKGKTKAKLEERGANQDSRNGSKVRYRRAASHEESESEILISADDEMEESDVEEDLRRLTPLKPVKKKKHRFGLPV
UniProt Q8N300: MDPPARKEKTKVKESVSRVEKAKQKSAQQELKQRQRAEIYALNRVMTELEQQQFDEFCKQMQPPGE
UniProt Q15543, whole entry, looked up: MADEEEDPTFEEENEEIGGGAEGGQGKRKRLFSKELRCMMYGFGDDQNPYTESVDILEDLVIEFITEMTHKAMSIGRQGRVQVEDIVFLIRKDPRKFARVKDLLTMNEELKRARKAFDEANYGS
UniProt O43759: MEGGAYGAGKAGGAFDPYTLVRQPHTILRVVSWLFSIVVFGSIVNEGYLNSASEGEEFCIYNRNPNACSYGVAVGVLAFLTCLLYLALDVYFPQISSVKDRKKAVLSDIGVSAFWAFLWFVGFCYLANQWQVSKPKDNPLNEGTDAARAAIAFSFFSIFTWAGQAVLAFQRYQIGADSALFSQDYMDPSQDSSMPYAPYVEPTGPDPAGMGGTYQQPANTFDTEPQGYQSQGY
UniProt Q9HCH5: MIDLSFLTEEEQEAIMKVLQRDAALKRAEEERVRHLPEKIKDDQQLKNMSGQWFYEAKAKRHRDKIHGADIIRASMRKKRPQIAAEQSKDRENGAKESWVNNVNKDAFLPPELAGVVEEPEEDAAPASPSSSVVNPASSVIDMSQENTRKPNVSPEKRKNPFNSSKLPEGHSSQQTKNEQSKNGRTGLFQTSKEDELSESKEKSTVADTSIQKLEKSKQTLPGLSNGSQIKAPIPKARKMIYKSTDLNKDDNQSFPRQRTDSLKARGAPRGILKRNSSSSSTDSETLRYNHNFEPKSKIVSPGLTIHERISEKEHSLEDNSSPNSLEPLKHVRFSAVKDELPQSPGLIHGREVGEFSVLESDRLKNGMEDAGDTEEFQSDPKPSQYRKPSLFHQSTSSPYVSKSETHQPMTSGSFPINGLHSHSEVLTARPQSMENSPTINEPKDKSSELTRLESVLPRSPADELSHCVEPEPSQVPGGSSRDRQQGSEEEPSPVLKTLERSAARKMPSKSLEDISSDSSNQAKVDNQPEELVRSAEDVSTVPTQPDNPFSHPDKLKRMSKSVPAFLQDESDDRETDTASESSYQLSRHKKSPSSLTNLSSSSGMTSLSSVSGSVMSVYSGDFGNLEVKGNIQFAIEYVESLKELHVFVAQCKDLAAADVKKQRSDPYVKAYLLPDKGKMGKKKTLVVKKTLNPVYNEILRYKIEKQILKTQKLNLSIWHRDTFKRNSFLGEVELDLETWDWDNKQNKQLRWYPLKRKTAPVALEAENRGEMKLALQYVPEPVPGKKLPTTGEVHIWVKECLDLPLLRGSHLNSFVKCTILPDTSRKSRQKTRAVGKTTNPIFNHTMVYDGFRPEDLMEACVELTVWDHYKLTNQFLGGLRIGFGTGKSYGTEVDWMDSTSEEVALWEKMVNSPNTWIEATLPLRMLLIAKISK
UniProt Q9UBS9: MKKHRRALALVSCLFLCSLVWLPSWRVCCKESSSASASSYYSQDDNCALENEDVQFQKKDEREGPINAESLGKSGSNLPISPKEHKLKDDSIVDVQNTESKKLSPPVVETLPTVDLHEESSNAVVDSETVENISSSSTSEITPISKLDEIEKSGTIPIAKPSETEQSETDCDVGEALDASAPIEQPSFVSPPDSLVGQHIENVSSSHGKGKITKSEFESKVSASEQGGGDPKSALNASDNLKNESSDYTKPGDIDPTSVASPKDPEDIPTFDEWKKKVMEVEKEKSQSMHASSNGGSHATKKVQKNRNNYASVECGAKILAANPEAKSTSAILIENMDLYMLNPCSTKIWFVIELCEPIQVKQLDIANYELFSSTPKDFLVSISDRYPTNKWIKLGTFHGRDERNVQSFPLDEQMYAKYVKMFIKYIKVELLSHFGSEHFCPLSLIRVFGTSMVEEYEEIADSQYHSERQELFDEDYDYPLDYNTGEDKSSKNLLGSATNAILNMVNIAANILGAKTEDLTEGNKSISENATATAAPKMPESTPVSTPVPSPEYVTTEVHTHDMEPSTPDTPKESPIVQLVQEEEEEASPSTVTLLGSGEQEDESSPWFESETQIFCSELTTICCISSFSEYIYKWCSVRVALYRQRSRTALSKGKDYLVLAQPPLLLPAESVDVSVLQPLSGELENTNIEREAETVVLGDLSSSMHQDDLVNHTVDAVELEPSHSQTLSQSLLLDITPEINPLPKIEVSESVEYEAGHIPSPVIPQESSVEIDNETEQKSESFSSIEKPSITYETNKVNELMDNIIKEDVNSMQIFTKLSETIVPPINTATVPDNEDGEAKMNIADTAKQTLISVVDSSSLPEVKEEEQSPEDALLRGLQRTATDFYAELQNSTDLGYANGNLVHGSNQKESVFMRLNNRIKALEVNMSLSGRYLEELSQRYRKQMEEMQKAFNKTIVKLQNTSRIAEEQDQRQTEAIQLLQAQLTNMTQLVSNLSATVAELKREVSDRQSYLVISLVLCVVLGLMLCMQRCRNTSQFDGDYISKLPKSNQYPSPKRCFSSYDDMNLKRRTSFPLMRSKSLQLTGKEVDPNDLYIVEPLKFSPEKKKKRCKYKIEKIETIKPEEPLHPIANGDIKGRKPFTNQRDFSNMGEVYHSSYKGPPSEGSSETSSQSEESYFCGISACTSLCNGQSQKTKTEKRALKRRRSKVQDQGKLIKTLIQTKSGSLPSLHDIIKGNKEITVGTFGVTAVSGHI
UniProt Q6PIF2: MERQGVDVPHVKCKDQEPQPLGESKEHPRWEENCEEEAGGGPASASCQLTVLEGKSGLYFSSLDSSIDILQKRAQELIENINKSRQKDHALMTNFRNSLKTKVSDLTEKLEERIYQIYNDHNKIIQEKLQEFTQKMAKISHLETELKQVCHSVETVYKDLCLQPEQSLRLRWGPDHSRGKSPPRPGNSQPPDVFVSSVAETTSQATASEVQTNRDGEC
UniProt O94901, whole entry, looked up: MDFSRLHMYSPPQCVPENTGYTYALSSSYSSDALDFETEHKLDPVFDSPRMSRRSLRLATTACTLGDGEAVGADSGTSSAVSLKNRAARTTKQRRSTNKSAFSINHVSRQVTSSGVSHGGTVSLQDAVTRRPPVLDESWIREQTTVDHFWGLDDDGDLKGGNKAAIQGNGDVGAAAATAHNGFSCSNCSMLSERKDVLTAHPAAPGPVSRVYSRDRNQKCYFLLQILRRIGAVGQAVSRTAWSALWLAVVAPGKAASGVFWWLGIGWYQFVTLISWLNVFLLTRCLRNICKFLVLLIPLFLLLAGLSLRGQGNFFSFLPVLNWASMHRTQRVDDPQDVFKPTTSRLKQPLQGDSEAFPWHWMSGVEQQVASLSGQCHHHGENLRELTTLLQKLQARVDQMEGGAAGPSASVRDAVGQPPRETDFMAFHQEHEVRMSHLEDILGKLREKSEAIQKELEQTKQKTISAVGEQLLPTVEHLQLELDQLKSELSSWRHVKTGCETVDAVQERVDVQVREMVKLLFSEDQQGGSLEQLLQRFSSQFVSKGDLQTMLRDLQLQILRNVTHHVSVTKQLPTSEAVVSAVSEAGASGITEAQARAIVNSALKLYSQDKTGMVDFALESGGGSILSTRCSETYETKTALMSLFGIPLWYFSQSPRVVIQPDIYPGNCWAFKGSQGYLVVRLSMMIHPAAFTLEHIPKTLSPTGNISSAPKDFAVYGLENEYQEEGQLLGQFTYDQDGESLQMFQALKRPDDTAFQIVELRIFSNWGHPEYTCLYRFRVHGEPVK
UniProt Q9P246, whole entry, looked up: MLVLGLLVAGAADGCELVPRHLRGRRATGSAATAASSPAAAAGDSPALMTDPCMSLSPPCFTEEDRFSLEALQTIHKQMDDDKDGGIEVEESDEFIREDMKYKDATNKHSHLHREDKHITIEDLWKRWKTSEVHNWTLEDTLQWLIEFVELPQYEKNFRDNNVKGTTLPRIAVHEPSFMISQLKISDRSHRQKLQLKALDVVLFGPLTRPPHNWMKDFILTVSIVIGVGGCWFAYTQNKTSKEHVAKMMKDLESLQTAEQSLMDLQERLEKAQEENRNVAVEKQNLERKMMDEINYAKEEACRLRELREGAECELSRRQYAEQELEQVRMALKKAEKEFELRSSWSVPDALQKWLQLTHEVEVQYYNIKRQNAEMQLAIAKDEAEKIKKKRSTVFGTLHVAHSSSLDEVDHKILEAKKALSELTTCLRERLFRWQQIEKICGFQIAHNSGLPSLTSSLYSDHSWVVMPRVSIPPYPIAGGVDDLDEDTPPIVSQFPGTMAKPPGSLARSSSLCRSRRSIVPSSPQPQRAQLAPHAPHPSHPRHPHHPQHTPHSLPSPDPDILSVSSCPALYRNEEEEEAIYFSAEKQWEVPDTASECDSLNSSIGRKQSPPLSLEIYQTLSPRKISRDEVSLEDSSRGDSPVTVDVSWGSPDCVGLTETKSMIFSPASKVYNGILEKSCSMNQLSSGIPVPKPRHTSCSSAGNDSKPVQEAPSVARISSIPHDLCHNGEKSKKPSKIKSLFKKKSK
UniProt Q6NVH7: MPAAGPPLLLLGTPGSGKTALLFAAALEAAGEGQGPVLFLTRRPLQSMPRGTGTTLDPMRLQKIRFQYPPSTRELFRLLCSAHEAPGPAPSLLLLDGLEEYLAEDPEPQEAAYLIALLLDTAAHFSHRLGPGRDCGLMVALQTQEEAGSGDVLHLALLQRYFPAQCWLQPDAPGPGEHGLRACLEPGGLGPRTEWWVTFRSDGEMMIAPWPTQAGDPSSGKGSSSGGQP
UniProt O75478: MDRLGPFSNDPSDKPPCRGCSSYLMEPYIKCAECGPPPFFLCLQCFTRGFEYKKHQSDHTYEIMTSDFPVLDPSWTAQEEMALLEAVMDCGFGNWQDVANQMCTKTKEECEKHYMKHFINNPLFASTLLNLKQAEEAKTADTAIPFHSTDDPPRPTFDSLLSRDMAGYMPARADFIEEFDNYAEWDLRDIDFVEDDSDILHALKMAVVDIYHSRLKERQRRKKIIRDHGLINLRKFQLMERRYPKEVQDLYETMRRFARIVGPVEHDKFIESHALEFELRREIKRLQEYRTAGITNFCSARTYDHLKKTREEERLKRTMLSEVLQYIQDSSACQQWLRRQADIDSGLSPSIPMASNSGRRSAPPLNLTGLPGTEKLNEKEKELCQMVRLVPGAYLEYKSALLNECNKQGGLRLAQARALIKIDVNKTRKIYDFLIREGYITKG
UniProt Q86TJ2: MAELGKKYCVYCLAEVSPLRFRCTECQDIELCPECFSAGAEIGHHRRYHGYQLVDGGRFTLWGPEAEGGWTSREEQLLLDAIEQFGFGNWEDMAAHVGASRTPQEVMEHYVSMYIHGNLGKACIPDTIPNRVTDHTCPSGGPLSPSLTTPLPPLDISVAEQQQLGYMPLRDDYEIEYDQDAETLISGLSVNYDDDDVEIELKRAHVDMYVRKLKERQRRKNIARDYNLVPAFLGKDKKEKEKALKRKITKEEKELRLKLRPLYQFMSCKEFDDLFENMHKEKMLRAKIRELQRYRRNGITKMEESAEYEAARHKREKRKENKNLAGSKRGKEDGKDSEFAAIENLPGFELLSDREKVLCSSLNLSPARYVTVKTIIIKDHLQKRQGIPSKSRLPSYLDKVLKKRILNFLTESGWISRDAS
UniProt Q9P289: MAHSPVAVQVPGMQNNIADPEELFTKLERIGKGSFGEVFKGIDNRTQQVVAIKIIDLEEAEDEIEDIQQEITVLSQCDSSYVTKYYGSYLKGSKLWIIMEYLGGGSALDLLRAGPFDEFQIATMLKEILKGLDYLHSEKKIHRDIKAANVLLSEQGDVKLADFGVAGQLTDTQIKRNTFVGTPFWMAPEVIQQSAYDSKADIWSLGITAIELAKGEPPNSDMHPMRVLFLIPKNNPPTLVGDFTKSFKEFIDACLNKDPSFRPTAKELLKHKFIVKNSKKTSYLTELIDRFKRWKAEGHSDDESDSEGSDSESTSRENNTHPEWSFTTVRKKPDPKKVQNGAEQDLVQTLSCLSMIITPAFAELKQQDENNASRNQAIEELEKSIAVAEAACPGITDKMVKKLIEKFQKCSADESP

barasertib = compound: CCN(CCCOc1ccc2c(Nc3cc(CC(=O)Nc4cccc(F)c4)[nH]n3)ncnc2c1)CCOP(=O)(O)O [barasertib]
Procedure, shortened: as §1

[1] = compound: CCn1c(C(=O)N(C2CC2)C2CC2)cc2c3c(ncn3C)c(Nc3cc(C)n(C)n3)nc21
Procedure, shortened: as §1

[2] = compound: CCn1cc(-c2ccnc3[nH]c(-c4cccc(CN(C)C)c4)cc23)c(-c2ccc(NC(=O)N(C)C)cc2)n1
Procedure, shortened: as §1

[3] = compound: CN1CCC(CNc2ccc3ncc(-c4cccc(OC(F)(F)F)c4)n3n2)CC1
Procedure, shortened: as §1

sotrastaurin = compound: CN1CCN(c2nc(C3=C(c4c[nH]c5ccccc45)C(=O)NC3=O)c3ccccc3n2)CC1 [sotrastaurin]
Procedure, shortened: as §1

[4] = compound: CC[C@@H]1C(=O)N(C)c2cnc(Nc3ccc(C(=O)NC4CCN(C)CC4)cc3OC)nc2N1C1CCCC1
Procedure, shortened: as §1

saracatinib = compound: CN1CCN(CCOc2cc(OC3CCOCC3)c3c(Nc4c(Cl)ccc5c4OCO5)ncnc3c2)CC1 [saracatinib]
Procedure, shortened: as §1

[5] = compound: CCCS(=O)(=O)Nc1ccc(F)c(C(=O)c2c[nH]c3ncc(Cl)cc23)c1F
Procedure, shortened: as §1

volasertib = compound: CC[C@@H]1C(=O)N(C)c2cnc(Nc3ccc(C(=O)N[C@H]4CC[C@H](N5CCN(CC6CC6)CC5)CC4)cc3OC)nc2N1C(C)C [volasertib]
Procedure, shortened: as §1

Measured: log2 fold change

STS (UniProt P08842)
inactive: vemurafenib -0.127 | barasertib -0.442 | [1] 0.095 | [2] -0.055 | [3] 0.049 | sotrastaurin -0.028

SUGCT isoform 3 (UniProt Q9HAC7)
inactive: [4] 0 | saracatinib 0.049

STIMATE (UniProt Q86TL2)
inactive: [1] -0.069

SVBP (UniProt Q8N300)
inactive: [4] -0.017 | [1] 0.002 | [2] 0.12 | [3] -0.01 | sotrastaurin -0.029

SUSD1 isoform 2 (UniProt Q6UWL2)
inactive: [4] -0.125 | [1] -0.219 | [2] -0.021 | [3] 0.073 | saracatinib 0 | sotrastaurin 0.004

STK16 (UniProt O75716)
inactive: vemurafenib 0.137 | [5] -0.103 | [4] 0.037 | volasertib 0.215 | [1] 0.654 | saracatinib 0.033 | sotrastaurin 0.061

STK17A (UniProt Q9UEE5)
inactive: [2] 0.164 | [3] -0.109

TAF13 (UniProt Q15543)
inactive: vemurafenib -0.038 | [1] 0.104 | [2] -0.081 | [3] -0.006

SYNGR1 isoform 2 (UniProt O43759)
inactive: barasertib 0.065 | [4] -0.233 | [1] -0.038 | [2] 0.031 | [3] 0.014 | sotrastaurin -0.018

SULT1A3 isoform 3 (UniProt P0DMM9)
inactive: barasertib -0.009 | [4] -0.142 | [1] 0.089 | [2] 0.13 | [3] -0.06 | saracatinib 0.029 | sotrastaurin 0.045

SYTL2 isoform 8 (UniProt Q9HCH5)
inactive: [5] 0.192 | barasertib 0.023 | volasertib 0.078 | saracatinib 0.047

TAB3 (UniProt Q8N5C8)
inactive: [5] 0.12 | barasertib 0.004 | [4] 0.018 | volasertib -0.257 | [1] 0.036 | [2] 0.131 | [3] -0.021 | saracatinib 0.006 | sotrastaurin 0.034

SUCO isoform 2 (UniProt Q9UBS9)
inactive: vemurafenib 0.059 | [4] -0.18 | [1] 0.089 | sotrastaurin 0.174

SYNM (UniProt O15061)
inactive: barasertib 0.063 | [4] 0.101 | [2] -0.06 | [3] 0.038

STK17B (UniProt O94768)
inactive: [1] -0.451 | saracatinib -0.002 | sotrastaurin 0.057

SYCE2 (UniProt Q6PIF2)
inactive: sotrastaurin 0.101

TAF1C (UniProt Q15572)
inactive: vemurafenib 0.012 | barasertib 0.012 | [4] 0.017 | [1] -0.07 | [2] -0.058 | [3] 0.051 | saracatinib 0.049 | sotrastaurin -0.053

SUN1 isoform 9 (UniProt O94901)
inactive: [1] 0.063

STIM2 isoform 2 (UniProt Q9P246)
inactive: [5] 0.038 | [4] 0.088 | volasertib -0.115 | [1] 0.017 | [2] 0.294 | [3] -0.132 | saracatinib 0.079 | sotrastaurin 0.096

STK38L (UniProt Q9Y2H1)
inactive: [4] -0.105 | [1] -0.047 | saracatinib -0.058 | sotrastaurin -0.01

SUSD3 (UniProt Q96L08)
inactive: [5] -0.071 | volasertib 0.104 | [1] 0.004 | [2] 0.028 | [3] 0.011

STON1 isoform 2 (UniProt Q9Y6Q2)
inactive: [5] -0.002 | volasertib -0.046 | [1] -0.014

TAF5L (UniProt O75529)
inactive: vemurafenib 0.07 | barasertib 0.121 | [4] 0.03 | [1] 0.081 | [2] 0.011 | [3] 0.067 | saracatinib 0.016 | sotrastaurin -0.045

SUFU (UniProt Q9UMX1)
inactive: vemurafenib 0.012 | [5] 0.247 | volasertib 0.06 | [1] -0.055 | [2] -0.01 | [3] -0.05 | sotrastaurin -0.099

SWSAP1 (UniProt Q6NVH7)
inactive: [1] 0.135 | saracatinib -0.149

SZT2 (UniProt Q5T011)
inactive: [5] -0.032 | barasertib 0.313 | [4] 0.293 | volasertib -0.095 | [1] 0.006 | [2] 0.035 | [3] 0.094 | saracatinib -0.073

STK35 (UniProt Q8TDR2)
inactive: [5] -0.01 | barasertib 0.021 | [4] 0.005 | volasertib -0.106 | [2] -0.269 | [3] 0.165 | saracatinib 0.015

SYNGR3 (UniProt O43761)
inactive: barasertib -0.086

STK10 (UniProt O94804)
inactive: barasertib 0.111 | [1] -0.335 | saracatinib 0.24 | sotrastaurin -0.069

STYX (UniProt Q8WUJ0)
inactive: [5] 0.082 | barasertib 0.121 | [4] 0.069 | volasertib -0.015 | [1] 0.003 | [2] 0.078 | [3] -0.077 | saracatinib 0.029 | sotrastaurin -0.1

TADA2A (UniProt O75478)
inactive: [1] 0.031 | sotrastaurin -0.245

TADA2B (UniProt Q86TJ2)
inactive: vemurafenib 0.02 | saracatinib 0.086 | sotrastaurin 0.169

SUSD6 (UniProt Q92537)
inactive: [2] -0.105 | [3] 0.349

TAF3 (UniProt Q5VWG9)
inactive: [5] 0.164 | volasertib -0.161 | [1] 0.118 | [2] -0.42 | [3] -0.018

STXBP6 (UniProt Q8NFX7)
inactive: barasertib 0.059 | [1] 0.143 | [2] -0.125 | [3] -0.088 | sotrastaurin -0.001

STK26 isoform 3 (UniProt Q9P289)
inactive: [4] 0.189 | saracatinib -0.046 | sotrastaurin -0.119

Random excerpt: 3 records from the list
TADA2A (UniProt O75478)
inactive: [1] 0.031 | sotrastaurin -0.245

SUSD6 (UniProt Q92537)
inactive: [2] -0.105 | [3] 0.349

TADA2B (UniProt Q86TJ2)
inactive: vemurafenib 0.02 | saracatinib 0.086 | sotrastaurin 0.169

The list continues:

SUPT3H (UniProt O75486)
inactive: [5] -0.015 | [4] 0.088 | volasertib 0.065 | [1] -0.008 | [2] 0.138 | [3] -0.149 | sotrastaurin 0.023

STRN3 isoform 2 (UniProt Q13033)
inactive: barasertib -0.08 | [2] -0.042 | [3] 0.065 | saracatinib -0.066

Reference: the supplement of paper PMC10849652
